# Test results: PubChem BioAssay AID2685 (National Center for Advancing Translational Sciences (NCATS), 2010)
# Out of some 320,000 compounds screened, about 2,100 (0.66%) were called active. Inconclusive results, whose numbers are uncertain, are shown with a selection of clear calls. Calls follow the shape of the dose curve; as a rule, active = well fitted inhibition curve with a large enough effect in the signal ratio, with a control signal flat (not every such curve was filed as active); inconclusive = small, poorly fitted or top-dose-only effect, or effect the other way, or a change in a side signal; inactive = flat fitted curve, though single readings scatter; the % refers to the signal ratio. Potencies of inconclusive entries are doubtful fits and often do not repeat.
# Assay: qHTS Assay for Lipid Storage Modulators in Drosophila S3 Cells
# Conditions: BODIPY lipid droplet fluorescence, 18-24 h, cells fed with added oleic acid; lipid storage change, negative = inhibition: at 46.1 µM (top of the series) unless noted
# In short: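 Drosophila S3 cells loaded with oleic acid (400 uM, as added) and compounds at several concentrations; lipid droplets imaged by 488-nm laser-scanning cytometry, 500–530 nm intensity and object ratio to cell channel. Percent activity normalized to 20 uM Triacsin C.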
# % is scaled to controls: 0 for no effect and ±100 for the full control effect; potency is read from the fitted curve at half-maximal effect.
Structure (SMILES),"lipid storage change, negative = inhibition",Potency
Cc1cccc(N2CCN(C(=O)C3CCN(S(=O)(=O)c4cccc5nsnc45)CC3)CC2C)c1 (stereo not given),inconclusive: -20.5%,
O=C(C1CCCO1)N1CCN(c2ccccn2)CC1 (stereo not given),,"inconclusive: 6.51 µM [falling, single point]"
c1cncc(-c2nnc(-c3cccnc3)nn2)c1,inconclusive: -24.4%,
CCN(CC)S(=O)(=O)c1ccc(NC(=O)CCN2C(=O)C3CC=CCC3C2=O)cc1 (stereo not given),,"inconclusive: 2.06 µM [activator, partial curve]"
CCCSc1nc2cc(C)c(C)cc2n1CC(O)CO (stereo not given),,"inconclusive: 0.0052 µM [cytotoxic, full curve, poor fit]"
COC(=O)c1ccc(CSc2nnc(-c3ccncc3)o2)cc1,inconclusive: -37.4%,
COc1ccc(S(=O)(=O)N2CCCC(C(=O)NCc3ccncc3)C2)cc1 (stereo not given),inconclusive: -19.6%,
Cc1cccc(C)c1NC(=O)NC1(C(=O)N2CCCCC2)CCCCC1,inconclusive: -82.1%,
Cc1ccc(S(=O)(=O)Nc2ccc(NC(=O)c3c(F)c(F)c(F)c(F)c3F)cc2)cc1,inconclusive: -10.5%,
COc1cccc(C(=O)NNC(=O)Cc2cccs2)c1,inconclusive: 3.4%,
CC(CNC(=O)c1cc(Cl)ccc1[N+](=O)[O-])NC(=O)c1cc(Cl)ccc1[N+](=O)[O-] (stereo not given),inactive,
Oc1c(N=NC(=S)Nc2ccccc2F)c2ccccc2n1Cc1ccccc1Cl,inconclusive: -18.9%,
CCOc1cc(C#N)ccc1OCC(=O)N1CCc2ccccc2C1,inconclusive: -32.3%,
Cc1ccc(NC(=O)CN2CCN(CCN=CC3=C(O)CC(c4ccccc4)CC3=O)CC2)cc1 (stereo not given),inconclusive: 77.7%,
CCOc1cc(/C=C(/C#N)C(=O)Nc2ccc(OC)cc2)ccc1OCc1ccc(C(=O)O)cc1,,"inconclusive: 29.1 µM [falling, single point]"
O=C(CCNC(=O)c1ccco1)Nc1cccc(Br)c1,inconclusive: -24.6%,
O=C(NC1CCCc2ccccc21)c1cc(F)cc(F)c1 (stereo not given),inconclusive: 196%,
Cn1c(=O)c2c(ncn2CC(=O)Nc2ccc(N3CCOCC3)cc2)n(C)c1=O,inconclusive: 5.67%,
CCN1CCN(C(=O)c2ccc3c(c2)N(Cc2ccccc2F)C(=O)c2ccccc2S3(=O)=O)CC1,inconclusive: 3.26%,
COc1ccc2cc(C)c(SCC(=O)Nc3cc(C)on3)nc2c1,inconclusive: 32%,
CC(C)(C)NC(=O)CN(Cc1cccnc1)C(=O)c1csnn1,inconclusive: 6.29%,
CC1CCN(S(=O)(=O)c2ccc3nc(N4CCN(c5ccccc5)CC4)ccc3c2)CC1,,"inconclusive: 29.1 µM [activator, single point]"
c1ccc2c(c1)CCc1snnc1-2,,"inconclusive: 9.2 µM [activator, partial curve, poor fit]"
COc1ccc(NC(=O)CCSc2ccc(C)cc2)cc1,inconclusive: 7.95%,
NC(=O)c1cc2c3ccccc3ccn2c1-c1ccccc1,,"inconclusive: 32.6 µM [falling, single point]"

Structure (SMILES),"lipid storage change, negative = inhibition",Potency
O=C(NCc1cccs1)C1CC(=O)N(c2ccc(F)cc2)C1 (stereo not given),inconclusive: -7.76%,
Cc1ccc(C(=O)N/N=C/c2ccc(OC(=O)c3ccccc3Cl)cc2)cn1,,"inconclusive: 1.3 µM [rising, full curve]"
CCOC(=O)N1CCN(C2=C(NS(=O)(=O)c3ccccc3)C(=O)c3ccccc3C2=O)CC1,,"inconclusive: 6.51 µM [falling, single point]"
CC(NC(=O)C1CCCN1S(=O)(=O)c1ccc2c(c1)n(C)c(=O)c(=O)n2C)c1ccccc1 (stereo not given),inconclusive: -23.8%,
O=C(Cn1ncc2c1-c1ccccc1OC2)Nc1nc2ccccc2s1,,"inconclusive: 0.259 µM [falling, single point]"
Cc1cccc(N(CC(=O)N2CCCC2)S(C)(=O)=O)c1,,"inconclusive: 0.206 µM [activator, full curve, poor fit]"
CCCC[C@@H]1CNCCN1CCc1cccc(F)c1,,"inconclusive: 18.4 µM [activator, single point]"
O=C(c1cnccn1)N(Cc1ccco1)C1(C(=O)NC2CCCC2)CCCCC1,inconclusive: -3.77%,
Cc1ccccc1-n1c(SC(C)C(N)=O)nnc1-c1cccnc1 (stereo not given),,"inconclusive: 0.0517 µM [falling, full curve]"
COc1ccc(CNC(=O)C(C)OC(=O)c2cccn2C)cc1 (stereo not given),inconclusive: -37%,
O=C(NC(=S)NCc1cccnc1)c1cc(Br)ccc1Cl,,"inconclusive: 29.1 µM [falling, partial curve, poor fit]"
O=C(/C=C/c1ccc(F)cc1)NCCCn1ccnc1,,"inconclusive: 29.1 µM [activator, partial curve, poor fit]"
NNc1nc(N)c2c(n1)-c1ccccc1CC21CCCC1,inconclusive: 17.7%,
CC(=O)c1ccc(NC(=O)c2cccc(N3C(=O)c4ccccc4C3=O)c2)cc1,inconclusive: 8.06%,
CN(CC(=O)Nc1ccc(S(=O)(=O)N2CCCC2)cc1)CC(=O)Nc1ccc(F)c(F)c1F,inconclusive: 33.1%,
COc1ccc(S(=O)(=O)N2CCCC2C(=O)NCC(=O)Nc2cccc(Cl)c2C)cc1 (stereo not given),,"inconclusive: 6.51 µM [activator, single point]"
O=C(c1ccc2nc[nH]c2c1)N1CCN(S(=O)(=O)c2cccc(F)c2)CC1,,"inconclusive: 0.517 µM [falling, full curve]"
CCOC(=O)N1CCN(C(=O)c2ccc3c(=O)n(Cc4ccc(Cl)cc4)c(=S)[nH]c3c2)CC1,,"inconclusive: 23.1 µM [falling, single point]"
CN(C)c1ccc(C=C(c2nnnn2-c2ccccc2)c2nnnn2-c2ccccc2)cc1,inconclusive: 15.1%,
COc1cc(NC(=O)CCN2CC(C)OC(C)C2)cc(OC)c1 (stereo not given),inconclusive: 46.6%,
CNc1oc(Cc2cccc3ccccc23)nc1C#N,inconclusive: 38.9%,
O=C(/C=C/c1ccccc1)NC(=S)Nc1cccnc1,,"inconclusive: 3.66 µM [falling, full curve]"
CSc1ccc(CNc2nc3ccccc3n3cnnc23)cc1,inconclusive: 19.9%,
O=C(Oc1nsnc1N1CCOCC1)N(c1ccccc1)c1ccccc1,inconclusive: -27.2%,
CCN1CCN(CCCNC(=O)Cn2nc(C)n3nc(-c4ccccc4)cc3c2=O)CC1,inconclusive: -21.6%,

# A draw from above in order of length of the SMILES, largest number first.
Structure (SMILES),"lipid storage change, negative = inhibition",Potency
CCOC(=O)N1CCN(C(=O)c2ccc3c(=O)n(Cc4ccc(Cl)cc4)c(=S)[nH]c3c2)CC1,,"inconclusive: 23.1 µM [falling, single point]"
CC(NC(=O)C1CCCN1S(=O)(=O)c1ccc2c(c1)n(C)c(=O)c(=O)n2C)c1ccccc1 (stereo not given),inconclusive: -23.8%,
CCOC(=O)N1CCN(C2=C(NS(=O)(=O)c3ccccc3)C(=O)c3ccccc3C2=O)CC1,,"inconclusive: 6.51 µM [falling, single point]"
COc1ccc(S(=O)(=O)N2CCCC2C(=O)NCC(=O)Nc2cccc(Cl)c2C)cc1 (stereo not given),,"inconclusive: 6.51 µM [activator, single point]"
CN(C)c1ccc(C=C(c2nnnn2-c2ccccc2)c2nnnn2-c2ccccc2)cc1,inconclusive: 15.1%,
CC(=O)c1ccc(NC(=O)c2cccc(N3C(=O)c4ccccc4C3=O)c2)cc1,inconclusive: 8.06%,
Cc1ccc(C(=O)N/N=C/c2ccc(OC(=O)c3ccccc3Cl)cc2)cn1,,"inconclusive: 1.3 µM [rising, full curve]"
O=C(c1cnccn1)N(Cc1ccco1)C1(C(=O)NC2CCCC2)CCCCC1,inconclusive: -3.77%,
O=C(Oc1nsnc1N1CCOCC1)N(c1ccccc1)c1ccccc1,inconclusive: -27.2%,
Cc1ccccc1-n1c(SC(C)C(N)=O)nnc1-c1cccnc1 (stereo not given),,"inconclusive: 0.0517 µM [falling, full curve]"
O=C(NCc1cccs1)C1CC(=O)N(c2ccc(F)cc2)C1 (stereo not given),inconclusive: -7.76%,
COc1ccc(CNC(=O)C(C)OC(=O)c2cccn2C)cc1 (stereo not given),inconclusive: -37%,
O=C(NC(=S)NCc1cccnc1)c1cc(Br)ccc1Cl,,"inconclusive: 29.1 µM [falling, partial curve, poor fit]"
NNc1nc(N)c2c(n1)-c1ccccc1CC21CCCC1,inconclusive: 17.7%,
O=C(/C=C/c1ccccc1)NC(=S)Nc1cccnc1,,"inconclusive: 3.66 µM [falling, full curve]"
O=C(/C=C/c1ccc(F)cc1)NCCCn1ccnc1,,"inconclusive: 29.1 µM [activator, partial curve, poor fit]"
CCCC[C@@H]1CNCCN1CCc1cccc(F)c1,,"inconclusive: 18.4 µM [activator, single point]"
CNc1oc(Cc2cccc3ccccc23)nc1C#N,inconclusive: 38.9%,

# Continuation.

Structure (SMILES),"lipid storage change, negative = inhibition",Potency
O=C(NC(=S)NCC1CCCO1)c1ccccc1F (stereo not given),inconclusive: -43.3% [at 0.00295 µM],
CCOC(=O)C1=C(c2ccccc2)OC(N)=C(C#N)C1C(C)C (stereo not given),inconclusive: 5.61%,
CCOc1ccc(C(CCc2ccccc2)NC(=O)c2ccccc2F)cc1OCC (stereo not given),,"inconclusive: 4.11 µM [falling, partial curve, poor fit]"
COc1cccc(CNC(=O)c2ccc(CS(=O)c3ccccc3)o2)c1 (stereo not given),,"inconclusive: 29.1 µM [falling, single point]"
COc1cc(/C=C2\C(=N)N3N=C(C)SC3=NC2=O)cc(Cl)c1OCCOc1ccc(NC(C)=O)cc1,inconclusive: 16%,
O=C(CCNS(=O)(=O)c1ccc(Br)cc1)NC1CCN(Cc2ccccc2)CC1,,"inconclusive: 25.9 µM [falling, single point]"
Cc1c(NC(=O)COc2cccc(F)c2)c(=O)n(-c2ccccc2)n1C,inactive,
Cc1cc(C(C)(C)C)cc(C)c1CCNC(=O)c1ccc[n+]([O-])c1,,"inconclusive: 29.1 µM [falling, single point]"
Cc1ccc(-c2nc(NCCN(C)C)c3ccccc3n2)cc1,inconclusive: 6.77%,
O=C(CCC1CCCCC1)Nc1cc(Cl)ccc1N1CCOCC1,inconclusive,
COc1ccc([C@@H]2Sc3ccccc3N(CCN(C)C)C(=O)[C@@H]2OC(C)=O)cc1,inconclusive: -4.85%,
CCOC(=O)c1ccc2nc3c(cc2c1)CCS3,inconclusive: -37.2% [at 0.0737 µM],
CC(C)(C)NC(=O)CCN(/N=C/c1ccccc1O)C1=NS(=O)(=O)c2ccccc21,inconclusive: -22.1%,
c1cncc(-c2nnc(SCc3cccc4ccccc34)o2)c1,inconclusive: -36.5%,
CSc1ccccc1NC(=O)C1CC(c2ccccc2Cl)=NO1 (stereo not given),,"inconclusive: 29.1 µM [activator, single point]"
Cc1c(Cl)cccc1NC(=O)C1CCN(c2cnccn2)CC1,,"inconclusive: 0.58 µM [falling, single point]"
O=C1CCCCCCC1Sc1ccccc1[N+](=O)[O-] (stereo not given),,"inconclusive: 29.1 µM [falling, single point]"
Cc1ccc(S(=O)(=O)N2CCN(C(=O)COC(=O)c3ccc(O)cc3)CC2)c(C)c1,inconclusive: 20.8%,
CCOc1ccccc1N(CC(=O)NCc1ccncc1)S(=O)(=O)c1ccccc1,inconclusive: 28.4%,
Cc1ccc(C)c(-n2ccnc2SCC(=O)c2c(N)n(C3CC3)c(=O)[nH]c2=O)c1,inconclusive: 7.95%,
CN(C)S(=O)(=O)c1cccc(NC(=O)CCCSc2ccccc2)c1,inconclusive: -73.9%,
COc1ccc(/C(N)=N/OC(=O)CC2CCCCC2)cc1,inconclusive: 30.5%,
Cc1ccc(NC(=O)CSCC(=O)Nc2ccc(N3CCOCC3)cc2N2CCOCC2)cc1,inconclusive,
COc1ccc(-n2c(=S)[nH]c3cc(C(=O)NCc4ccccc4OC)ccc3c2=O)c(OC)c1,,"inconclusive: 0.0046 µM [activator, full curve, poor fit]"
COC(=O)c1cccc(NC(=O)CN2C(=O)C3CCCCC3C2=O)c1 (stereo not given),inconclusive,
